Results published in PubChem BioAssay AID2551 (National Center for Advancing Translational Sciences (NCATS), 2010).
Hit rate of the full screen: of about 310,000 compounds, about 17,000 (5.5%) were called active. Inconclusive results, whose numbers are uncertain, are shown with a selection of clear calls. Calls follow the shape of the dose curve; as a rule, active = well fitted inhibition curve with a large enough effect; inconclusive = small, poorly fitted or top-dose-only effect, or effect the other way; inactive = no such curve, though single readings can be large or run the other way. Potencies of inconclusive entries are doubtful fits and often do not repeat.

By UniProt entry, the sequences of proteins in these tests, tags left out. Where a name states a change or a piece, a line headed by the entry shows the natural chain unless it says otherwise.
UniProt P51450: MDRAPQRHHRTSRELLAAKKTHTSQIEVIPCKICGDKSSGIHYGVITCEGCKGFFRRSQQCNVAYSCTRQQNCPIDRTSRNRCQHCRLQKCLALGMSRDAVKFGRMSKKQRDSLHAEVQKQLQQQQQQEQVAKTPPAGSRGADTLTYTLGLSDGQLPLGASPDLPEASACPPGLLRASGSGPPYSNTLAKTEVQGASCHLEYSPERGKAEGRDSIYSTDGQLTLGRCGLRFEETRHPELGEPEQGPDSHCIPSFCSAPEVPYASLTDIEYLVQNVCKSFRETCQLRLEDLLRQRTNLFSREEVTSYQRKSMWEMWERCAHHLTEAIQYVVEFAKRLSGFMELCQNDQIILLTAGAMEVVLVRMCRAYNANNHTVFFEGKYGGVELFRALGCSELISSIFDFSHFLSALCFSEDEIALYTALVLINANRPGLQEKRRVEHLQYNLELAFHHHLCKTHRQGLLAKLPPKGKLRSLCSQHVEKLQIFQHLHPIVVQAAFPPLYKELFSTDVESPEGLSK

What follows are molecules tested against Nuclear receptor ROR-gamma (Mus musculus) (UniProt P51450) (assay: qHTS for inhibitors of ROR gamma transcriptional activity). Details: Drosophila S2 Gal4-RORgamma UAS-luciferase reporter, 20 h; series mostly up to 53.6 µM.
In short: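 Drosophila S2 cells stably expressing Gal4-DBD/mouse RORγ fusion under metallothionein promoter plus UAS-luciferase; compound 1 h, then 700 uM CuSO4 induction for 20 h at ambient temperature; inhibition read as reduced luminescence.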
Also: nearly all actives have a fitted effect of over 60% in size.
Potency is read from the fitted curve at half-maximal effect.

Potency, inconclusive:
COc1ccc(C2=COc3ccccc3C(=O)N2)cc1 12.6 µM [activator, single point], COc1ccc(CCNC(=O)c2cc3c(F)cccc3s2)cc1OC 35.5 µM [activator, single point], Cc1ccc(Cl)cc1NC(=O)COC(=O)C12CC3CC(CC(C3)C1)C2 22.4 µM [activator, single point], Cc1c(C(=O)N2CCN(Cc3ccc4c(c3)OCO4)CC2)sc2ncnc(N3CCN(c4ccccc4F)CC3)c12 12.6 µM [activator, partial curve], C/C1=C2/[N-]C(C(CC(N)=O)[C@@]2(C)CCC(=O)NCC(C)OP(=O)([O-])O[C@H]2[C@@H](O)[C@@H](n3cnc4cc(C)c(C)cc43)O[C@@H]2CO)[C@]2(C)N=C(/C(C)=C3N=C(/C=C4N=C1C(CCC(N)=O)C\4(C)C)[C@@H](CCC(N)=O)[C@]\3(C)CC(N)=O)[C@@H](CCC(N)=O)[C@]2(C)CC(N)=O.CC(=O)O.[Co] (some centres not stated) 35.5 µM [inhibitor, single point], CC(C)c1cc(C(=O)N2CCCC(N3CCN(c4ccc(F)cc4)CC3)C2)no1 (configuration not stated) 22.4 µM [activator, single point], COc1ccccc1Oc1ccc2c(c1)C(=O)N(c1ccc(Br)c3cccnc13)C2=O 5.62 µM [activator, partial curve], Cc1ccc(NCc2nc3ccccc3n2C)cc1 35.5 µM [inhibitor, single point], COc1cccc(C(=O)CSc2nnc(-c3cccs3)o2)c1 35.5 µM [inhibitor, single point], Cc1ccc(S(C)(=O)=O)cc1S(=O)(=O)Nc1ccccc1 35.5 µM [activator, single point], Clc1ccc(SCc2cn3cccnc3n2)cc1 3.98 µM [activator, full curve], Cc1nc(N2CCN(C(=O)c3ccco3)CC2)c2c3c(sc2n1)CC(C)CC3 (configuration not stated) 11.2 µM [activator, single point], COc1cc(/C=C/C(=O)OCC(=O)N2CCc3ccccc3C2)ccc1O 35.5 µM [activator, single point], CCOC(=O)c1cc2c(nc1N)CC(C)(C)OC2 12.6 µM [activator, single point], Cc1cc(-c2nnc(CCC(=O)N3CCN(Cc4cccc(F)c4)CC3)o2)c(C)o1 35.5 µM [activator, single point], N#C/C(=C(/O)C(Cl)(Cl)Cl)c1nc2ccccc2[nH]1 15.8 µM [inhibitor, partial curve, poor fit], O=C(Nc1ccc(Cl)c(Cl)c1)N1CCSC1c1ccco1 (configuration not stated) 35.5 µM [inhibitor, single point], Cc1nn(Cc2ccc(Cl)c(Cl)c2)c(C)c1NC(=O)c1noc2c1CCCCC2 10 µM [activator, partial curve], O=C(Cn1cc([N+](=O)[O-])cn1)NCc1cc2ccccc2[nH]1 11.2 µM [activator, single point], N#C/C(=C\C1CC=CCC1)c1nc2ccccc2[nH]1 (configuration not stated) 31.6 µM [inhibitor, single point], CCOc1ccccc1OCCOCCOc1ccccc1[N+](=O)[O-] 2.82 µM [activator, partial curve], CS(=O)(=O)N(CC(O)Cn1c2ccccc2c2ccccc21)c1ccccc1 (configuration not stated) 0.126 µM [inhibitor, partial curve, poor fit], COc1ccc(OC)c(NC(=O)CS(=O)(=O)Cc2nc(-c3ccccc3C)oc2C)c1 3.55 µM [activator, single point]

Potency, active:
COc1ccc(NC(=S)NCCc2c(C)[nH]c3ccc(OC)cc23)cc1 5.62 µM, N#CC1=C(N)Oc2n[nH]c(-c3cccnc3)c2C1c1ccc([N+](=O)[O-])o1 (configuration not stated) 6.31 µM, CC12CC3CC(C)(C1)CC(C(=O)NC(=S)N1CCCCC1)(C3)C2 0.447 µM, CC(c1nc2ccccc2n1Cc1ccccc1)N1CCCCC1 (configuration not stated) 14.1 µM, COc1ccc(C2/C=C\CN(C(=O)C3CC3)C(Cc3ccccc3)C(=O)N2Cc2ccc(F)cc2)cc1 (configuration not stated) 10 µM, O=C(/C=C/c1ccccc1)NC(=S)NNC(=O)c1cccnc1 10 µM, N#Cc1cc2ccccc2nc1SCc1ccccn1 6.31 µM, S=C1NC2=C(CCC/C2=C\c2ccccc2)C(c2ccccc2)N1 (configuration not stated) 3.55 µM, CC(=O)c1cccc(NC(=S)NC(=O)CC(C)(C)C)c1 12.6 µM

Potency, inactive:
CCCC(=O)Nc1ccc(C(=O)NN=C(C2CC2)C2CC2)cc1, CCOC(=O)N1CCc2c(sc(NC(=O)CN(CC)CC)c2C#N)C1, O=C(NCC1CCCO1)C1CCCN1C(=O)Nc1ccc(Cl)cc1 (configuration not stated), Cc1cc(O)c2c(c1)C(=O)c1cc(O)cc(O)c1C2=O, O=C(O)c1ccc(CNC(=S)Nc2ccccc2)cc1, CC(NC(=O)Cc1cccs1)C(c1cccs1)N1CCN(c2ccccc2F)CC1 (configuration not stated), CCN(CC)S(=O)(=O)c1ccc(N2CCCC2)c(NS(=O)(=O)c2ccc(F)cc2)c1, Cc1ccc(NS(=O)(=O)c2ccc(OCC(N)=O)cc2)cc1, COc1cccc(NC(=O)CCC2CCN(C(=O)c3cccc(NC(C)=O)c3)CC2)c1, Cc1cccc(N2CCN(C(=O)Cn3nc(C)n4cccc4c3=O)CC2C)c1 (configuration not stated), COc1ccc(/C=N/NC(=O)c2ccc(N3CCCC3=O)cc2)cc1, CCN1C(=O)c2cccc3c(N)ccc(c23)C1=O, O=C(N/N=C/c1cn(CC(=O)N2CCOCC2)c2ccccc12)c1cccnc1, CCOC(=O)c1sc(=S)n(-c2ccc(OC)cc2)c1C, CCC(C)NCCOc1ccc(C)cc1[N+](=O)[O-] (configuration not stated)
